Values from PubChem BioAssay AID720505 (Drosophila RNAi Screening Center, 2013)
Purpose: 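Genes needed for store-operated calcium entry in fly cells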 (primary screen). Cells: Drosophila S2R+ cells. Reagents: long dsRNA against Drosophila genes. Treatment: thapsigargin (2 µM) in calcium-free buffer to empty internal stores, then 2 mM calcium added back. Measured: 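Fluo-4 signal in 384-well plates read on a FLIPR after thapsigargin (2 µM, calcium-free) store depletion and 2 mM calcium add-back; unnormalised mean endpoint per well; screen run twice, selected wells retested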. Reading the numbers: calcium signal and retest calcium signal: higher = more calcium entry after store depletion. Hit rule: 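Knock-downs counted as hits when calcium entry dropped relative to STIM1 positive and Rho1 negative controls present on each plate; roughly 1500 genes called, with reductions of differing size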. Meaning of the calls: active = called as lowering calcium entry; inactive = not called.
The screen tested about 20,000 reagents; shown is a random part of those with a known target gene and a result. Over the whole deposit, about 2,100 (10%) got an active call. 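Raw plate signals without normalisation; calls rest on control-based scores that were not deposited; replicate 2 separates called from uncalled poorly.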 The record does not give: the amount of reagent, the time to read-out.

no.	predicted target	DRSC id	calcium signal, replicate 1	calcium signal, replicate 2	retest calcium signal, replicate 1	retest calcium signal, replicate 2	activity call
1	Grx5 (Glutaredoxin 5)	DRSC19593	106	163			inactive
2	mldr (mulder)	DRSC18100	131	135			inactive
3	CG5758	DRSC02889	121	116	113	103	inactive
4	CG5758	DRSC02890	124	109			inactive
5	CG13003	DRSC19522	121	113			inactive
6	Trx2 (Thioredoxin 2)	DRSC03622	168	188			inactive
7	mRpS16 (mitochondrial ribosomal protein S16)	DRSC07152	84.1	174			inactive
8	CG13063	DRSC09946	112	123			inactive
9	CG4860	DRSC15664	134	106	119	85.5	inactive
10	CG4860	DRSC21755	179	108			inactive
11	Ntan1 (N-terminal amidohydrolase 1)	DRSC07546	173	162			inactive
12	Prosbeta5R1 (Proteasome beta5 subunit-related 1)	DRSC04581	89.1	102			inactive
13	Gk2 (Glycerol kinase 2)	DRSC08610	101	98.5			inactive
14	CG15237	DRSC04971	109	114			inactive
15	CG8854	DRSC07288	148	145			inactive
16	IFT57 (Intraflagellar transport 57)	DRSC00720	181	115			inactive
17	CG30394	DRSC04074	132	122			inactive
18	CG30394	DRSC04260	153	127			inactive
19	CG33012	DRSC06287	171	172			inactive
20	CG33012	DRSC06288	158	212			inactive
21	Srp72 (Signal recognition particle 72)	DRSC15800	173	230			inactive
22	cdm (cadmus)	DRSC16213	188	217			inactive
23	CG4576	DRSC15604	117	162			inactive
24	sona (sol narae)	DRSC04089	110	281			inactive
25	sona (sol narae)	DRSC04574	150	232			inactive
26	sona (sol narae)	DRSC04575	131	205			inactive
27	caly (calypso)	DRSC07182	64	118			active
28	pyx (pyrexia)	DRSC08510	109	125			inactive
29	pyx (pyrexia)	DRSC08511	95.8	94.6			inactive
30	Jasper (JIL-1 anchoring and stabilizing protein)	DRSC16352	134	136			inactive
31	NimB5 (Nimrod B5)	DRSC01885	121	174			inactive
32	CG6638	DRSC10680	104	69.6			inactive
33	CG14417	DRSC18638	160	157			inactive
34	CG4866	DRSC06899	159	128			inactive
35	mRpL35 (mitochondrial ribosomal protein L35)	DRSC14586	173	171			inactive
36	CG14615	DRSC20627	115	99.8			inactive
37	CG9590	DRSC16506	128	136			inactive
38	ppk10 (pickpocket 10)	DRSC01123	136	77.7			inactive
39	PGRP-LC (Peptidoglycan recognition protein LC)	DRSC10416	70.1	113			inactive
40	PGRP-LC (Peptidoglycan recognition protein LC)	DRSC10417	90.6	127			inactive
41	CG14538 (retired record)	DRSC02396	78	81.2			active
42	abd-A (abdominal A)	DRSC16897	129	70.7			active
43	abd-A (abdominal A)	DRSC23013	124	141			inactive
44	Prosbeta2 (Proteasome beta2 subunit)	DRSC11257	80.9	69.9			inactive
45	CG13362	DRSC17897	71.2	121			inactive
46	Mef2 (Myocyte enhancer factor 2)	DRSC07468	199	213			inactive
47	prg (piragua)	DRSC03324	179	162			inactive
48	Chd1 (Chromodomain-helicase-DNA-binding protein 1)	DRSC00745	110	165			inactive
49	CG14506	DRSC14858	111	129			inactive
50	CG9132	DRSC20159	119	120			inactive
51	peb (pebbled)	DRSC18817	230	130			inactive
52	peb (pebbled)	DRSC23057	89.7	135			inactive
53	Fam92	DRSC02952	99.1	94.5			inactive
54	Poc1 (Proteome of centrioles 1)	DRSC09713	60.1	98.8			active
55	ND2 (retired record)	DRSC21274	68.2	210	105	94	active
56	CG10444	DRSC05990	184	85.7			inactive
